Experimental data: PubChem BioAssay AID1224826 (NIAID, 2016)
The deposit covers about 17,000 reagents; shown is an unselected part. In the full data, about 1,110 (6.6%) are marked active. 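Active means lowered or raised reporter signal; replicate intensities are raw and not normalised per plate.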 Not all columns of the deposit are shown.

Assay: 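Genes that change LPS-induced Tnf promoter activity in mouse macrophages when knocked down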 (primary screen)
System: RAW264.7 G9 macrophages from mouse bearing reporters for p65 (GFP) and the Tnf promoter (mCherry)
Reagents: siRNA pool against mouse genes, 100 nM
Duration: 16 h of LPS stimulation, after 2 days of siRNA transfection
Challenge: bacterial lipopolysaccharide (Salmonella minnesota R595), 10 ng/ml
Detection: 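Imaged Tnf reporter mCherry in nuclei, minus background, normalised per plate to the median and expressed as robust z-scores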
Scale: Tnf reporter robust z-score: higher = stronger Tnf promoter reporter signal after LPS; Tnf reporter intensity: higher = stronger Tnf promoter reporter signal
Active means: 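Called active when robust z-score is at most -1.3, matching the median of the Tlr4 knock-down control, or over 3; control wells and wells with under 50 cells never active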
Meaning of the calls: active = Tnf reporter clearly lowered or raised; inactive = no clear change in Tnf reporter

Target gene | Tnf reporter robust z-score | fewer than 50 cells in well | Tnf reporter intensity, replicate 1 | Call
Bcas1 | 0.98 | enough cells in well | 160 | inactive
Ctnna3 | 1.48 | enough cells in well | 328 | inactive
Mrpl52 | -0.18 | enough cells in well | 198 | inactive
Vpreb1a | -1.14 | enough cells in well | 144 | inactive
Clxn | 0.68 | enough cells in well | 202 | inactive
Klra7 | -0.31 | enough cells in well | 196 | inactive
Btg2 | 0.33 | enough cells in well | 155 | inactive
Raet1d | 2.51 | enough cells in well | 234 | inactive
Trim67 | -0.65 | enough cells in well | 159 | inactive
Smc3 | -0.56 | enough cells in well | 149 | inactive
Pex6 | -0.29 | enough cells in well | 221 | inactive
Slc35b3 | – | fewer than 50 cells per well; well left out of calls | 35.6 | inactive
Ntf3 | -0.32 | enough cells in well | 223 | inactive
Steap3 | 1.16 | enough cells in well | 136 | inactive
Il17d | -0.4 | enough cells in well | 155 | inactive
Lrrc23 | -0.66 | enough cells in well | 149 | inactive
Triap1 | 0.36 | enough cells in well | 224 | inactive
Card11 | 0.03 | enough cells in well | 138 | inactive
Dcaf7 | – | fewer than 50 cells per well; well left out of calls | 160 | inactive
Ctnnbl1 | 0.91 | enough cells in well | 331 | inactive
Ang3 | -0.43 | enough cells in well | 151 | inactive
Or5b113 | 0.34 | enough cells in well | 171 | inactive
Dyrk4 | 1.51 | enough cells in well | 286 | inactive
Sar1b | 3.38 | enough cells in well | 302 | active
Scyl1 | -0.3 | enough cells in well | 195 | inactive
Hars2 | -0.12 | enough cells in well | 254 | inactive
Kif15 | 0.09 | enough cells in well | 225 | inactive
Herc1 | 0.38 | enough cells in well | 271 | inactive
Slc45a1 | -0.82 | enough cells in well | 124 | inactive
Pnp | -0.75 | enough cells in well | 208 | inactive
Clk4 | -0.5 | enough cells in well | 126 | inactive
Fam3d | 1.19 | enough cells in well | 278 | inactive
Mpzl1 | 0.48 | enough cells in well | 222 | inactive
Or4a72 | 2.55 | enough cells in well | 339 | inactive
Scart1 | – | fewer than 50 cells per well; well left out of calls | 130 | inactive
F11r | -0.83 | enough cells in well | 169 | inactive
Meig1 | -0.58 | enough cells in well | 163 | inactive
Cryz | -1.12 | enough cells in well | 143 | inactive
Ddb1 | 0.29 | enough cells in well | 228 | inactive
Trub2 | 0.71 | enough cells in well | 210 | inactive
Acsl1 | -0.24 | enough cells in well | 222 | inactive
Ptpn9 | -1 | enough cells in well | 155 | inactive
Gemin2 | -0.84 | enough cells in well | 231 | inactive
Gstp1 | -0.89 | enough cells in well | 199 | inactive
Tas1r3 | -0.75 | enough cells in well | 208 | inactive
C1qtnf4 | -0.76 | enough cells in well | 88.2 | inactive
Sh3gl2 | 0.12 | enough cells in well | 280 | inactive
Nqo2 | 1.73 | enough cells in well | 429 | inactive
Epha7 | -0.61 | enough cells in well | 170 | inactive
Nudt15 | -0.29 | enough cells in well | 199 | inactive
Rsrc1 | -0.15 | enough cells in well | 204 | inactive
Slc26a6 | -0.19 | enough cells in well | 106 | inactive
Mccc1 | 0.43 | enough cells in well | 339 | inactive
Or1j15 | -0.89 | enough cells in well | 133 | inactive
Fundc2b | -0.6 | enough cells in well | 121 | inactive
Slbp | -0.27 | enough cells in well | 232 | inactive
Or13j1 | – | fewer than 50 cells per well; well left out of calls | 68.7 | inactive
Rps23 | – | fewer than 50 cells per well; well left out of calls | 119 | inactive

Just “fewer than 50 cells in well” (2 entries from above):
Dcaf7 = fewer than 50 cells per well; well left out of calls
Ctnnbl1 = enough cells in well
